According to the supplement of paper PMC7666118:
The list shows a part of the results.

By UniProt entry, the sequences of proteins in these tests, tags left out. Where a name states a change or a piece, a line headed by the entry shows the natural chain unless it says otherwise.
UniProt Q15386: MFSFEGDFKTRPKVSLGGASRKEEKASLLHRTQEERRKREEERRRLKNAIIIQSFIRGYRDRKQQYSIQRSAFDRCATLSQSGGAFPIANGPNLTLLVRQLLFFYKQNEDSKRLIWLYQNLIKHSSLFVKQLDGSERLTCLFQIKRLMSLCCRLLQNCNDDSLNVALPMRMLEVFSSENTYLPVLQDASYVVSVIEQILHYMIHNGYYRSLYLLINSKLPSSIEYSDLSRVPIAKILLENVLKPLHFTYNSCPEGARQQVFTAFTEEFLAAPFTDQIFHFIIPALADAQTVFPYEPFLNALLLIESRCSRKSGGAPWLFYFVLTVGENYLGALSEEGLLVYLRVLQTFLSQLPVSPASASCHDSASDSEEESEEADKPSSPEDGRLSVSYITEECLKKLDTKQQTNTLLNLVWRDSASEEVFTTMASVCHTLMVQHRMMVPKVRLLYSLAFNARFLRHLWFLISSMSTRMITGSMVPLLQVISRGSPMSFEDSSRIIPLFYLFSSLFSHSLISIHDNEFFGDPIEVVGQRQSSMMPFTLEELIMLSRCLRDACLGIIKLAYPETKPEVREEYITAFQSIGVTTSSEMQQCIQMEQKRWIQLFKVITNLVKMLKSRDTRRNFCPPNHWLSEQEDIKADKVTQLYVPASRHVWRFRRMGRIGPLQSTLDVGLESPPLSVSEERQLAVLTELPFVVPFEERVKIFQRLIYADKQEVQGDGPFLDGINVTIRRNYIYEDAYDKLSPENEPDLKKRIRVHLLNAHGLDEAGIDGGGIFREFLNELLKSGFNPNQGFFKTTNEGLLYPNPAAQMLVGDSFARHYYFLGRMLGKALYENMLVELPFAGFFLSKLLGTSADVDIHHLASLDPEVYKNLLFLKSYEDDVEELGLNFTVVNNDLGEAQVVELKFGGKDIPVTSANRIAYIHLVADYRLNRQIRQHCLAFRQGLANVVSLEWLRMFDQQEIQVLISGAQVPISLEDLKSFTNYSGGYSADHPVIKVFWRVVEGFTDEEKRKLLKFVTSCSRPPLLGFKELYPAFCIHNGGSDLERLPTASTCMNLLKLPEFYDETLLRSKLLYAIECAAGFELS
UniProt O14562: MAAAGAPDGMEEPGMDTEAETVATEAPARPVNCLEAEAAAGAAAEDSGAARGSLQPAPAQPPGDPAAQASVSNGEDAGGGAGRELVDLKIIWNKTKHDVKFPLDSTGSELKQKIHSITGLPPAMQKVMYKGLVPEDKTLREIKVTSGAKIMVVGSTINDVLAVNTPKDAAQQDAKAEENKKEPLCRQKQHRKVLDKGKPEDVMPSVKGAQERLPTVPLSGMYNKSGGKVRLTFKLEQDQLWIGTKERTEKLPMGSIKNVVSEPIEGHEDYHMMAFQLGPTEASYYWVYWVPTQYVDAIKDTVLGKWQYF
UniProt Q6BDS2: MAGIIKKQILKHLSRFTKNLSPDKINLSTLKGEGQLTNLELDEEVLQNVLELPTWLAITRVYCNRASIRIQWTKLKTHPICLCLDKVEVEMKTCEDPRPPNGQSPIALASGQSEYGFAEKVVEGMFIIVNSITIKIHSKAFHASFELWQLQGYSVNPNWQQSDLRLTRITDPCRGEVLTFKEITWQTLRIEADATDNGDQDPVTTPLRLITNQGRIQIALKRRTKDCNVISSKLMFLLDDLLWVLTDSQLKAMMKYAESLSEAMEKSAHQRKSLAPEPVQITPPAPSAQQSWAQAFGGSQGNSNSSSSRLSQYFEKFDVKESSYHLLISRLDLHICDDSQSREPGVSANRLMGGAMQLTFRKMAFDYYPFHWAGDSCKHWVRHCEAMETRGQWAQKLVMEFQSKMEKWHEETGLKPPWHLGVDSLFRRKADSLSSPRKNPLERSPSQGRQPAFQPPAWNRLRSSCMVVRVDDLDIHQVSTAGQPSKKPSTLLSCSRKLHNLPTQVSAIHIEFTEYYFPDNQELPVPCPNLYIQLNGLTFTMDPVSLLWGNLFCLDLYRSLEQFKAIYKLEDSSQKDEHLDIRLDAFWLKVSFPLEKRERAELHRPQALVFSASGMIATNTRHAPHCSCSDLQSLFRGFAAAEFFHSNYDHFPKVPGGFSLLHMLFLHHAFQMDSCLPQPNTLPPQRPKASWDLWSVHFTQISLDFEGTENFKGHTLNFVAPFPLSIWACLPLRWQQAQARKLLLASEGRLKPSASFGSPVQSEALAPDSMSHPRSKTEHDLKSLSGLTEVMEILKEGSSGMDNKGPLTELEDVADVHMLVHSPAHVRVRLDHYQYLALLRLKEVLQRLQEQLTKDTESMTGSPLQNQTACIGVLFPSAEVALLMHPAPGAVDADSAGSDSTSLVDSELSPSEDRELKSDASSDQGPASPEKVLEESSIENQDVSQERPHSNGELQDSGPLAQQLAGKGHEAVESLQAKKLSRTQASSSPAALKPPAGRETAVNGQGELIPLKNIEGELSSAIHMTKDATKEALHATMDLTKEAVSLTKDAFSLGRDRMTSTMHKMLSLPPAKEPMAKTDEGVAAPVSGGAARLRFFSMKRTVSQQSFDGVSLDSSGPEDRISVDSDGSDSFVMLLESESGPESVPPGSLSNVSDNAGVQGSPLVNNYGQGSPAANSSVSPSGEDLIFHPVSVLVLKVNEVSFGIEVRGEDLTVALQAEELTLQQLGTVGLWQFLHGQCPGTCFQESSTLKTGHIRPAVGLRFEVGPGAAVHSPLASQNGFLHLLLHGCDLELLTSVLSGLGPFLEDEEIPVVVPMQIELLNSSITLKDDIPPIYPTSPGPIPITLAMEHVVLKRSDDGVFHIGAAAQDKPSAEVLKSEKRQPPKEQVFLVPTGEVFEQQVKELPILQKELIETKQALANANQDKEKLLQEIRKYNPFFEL
UniProt Q99598: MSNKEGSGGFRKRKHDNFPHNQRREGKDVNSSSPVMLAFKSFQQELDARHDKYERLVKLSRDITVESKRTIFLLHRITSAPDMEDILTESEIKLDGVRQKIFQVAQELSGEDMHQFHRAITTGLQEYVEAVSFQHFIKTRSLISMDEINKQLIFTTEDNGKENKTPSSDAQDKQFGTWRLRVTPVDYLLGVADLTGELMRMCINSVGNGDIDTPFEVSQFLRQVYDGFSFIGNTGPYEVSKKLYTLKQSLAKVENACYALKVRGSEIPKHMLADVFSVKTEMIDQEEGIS
UniProt P10599: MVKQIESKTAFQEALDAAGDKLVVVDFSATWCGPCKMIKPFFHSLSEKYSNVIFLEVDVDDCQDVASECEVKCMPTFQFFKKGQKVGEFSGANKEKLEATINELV
UniProt Q9Y296, whole entry: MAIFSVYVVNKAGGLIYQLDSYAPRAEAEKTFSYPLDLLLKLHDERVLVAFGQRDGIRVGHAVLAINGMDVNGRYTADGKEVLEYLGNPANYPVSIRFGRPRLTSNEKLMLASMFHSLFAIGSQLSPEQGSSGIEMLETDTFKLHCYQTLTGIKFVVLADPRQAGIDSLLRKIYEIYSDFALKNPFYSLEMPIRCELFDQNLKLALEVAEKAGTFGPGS
UniProt O00635: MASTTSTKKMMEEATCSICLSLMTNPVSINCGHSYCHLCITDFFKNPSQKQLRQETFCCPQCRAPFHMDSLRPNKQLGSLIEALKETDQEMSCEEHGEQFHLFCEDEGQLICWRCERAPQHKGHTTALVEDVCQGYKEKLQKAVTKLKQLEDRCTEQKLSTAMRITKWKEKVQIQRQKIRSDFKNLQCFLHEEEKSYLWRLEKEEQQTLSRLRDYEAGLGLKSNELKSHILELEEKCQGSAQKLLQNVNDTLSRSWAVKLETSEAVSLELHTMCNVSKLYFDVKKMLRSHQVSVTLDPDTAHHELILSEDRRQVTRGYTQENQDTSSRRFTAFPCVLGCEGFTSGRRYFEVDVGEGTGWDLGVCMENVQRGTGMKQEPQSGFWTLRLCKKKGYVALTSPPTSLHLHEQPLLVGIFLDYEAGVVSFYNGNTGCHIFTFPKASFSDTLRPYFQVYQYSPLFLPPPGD
UniProt P40222: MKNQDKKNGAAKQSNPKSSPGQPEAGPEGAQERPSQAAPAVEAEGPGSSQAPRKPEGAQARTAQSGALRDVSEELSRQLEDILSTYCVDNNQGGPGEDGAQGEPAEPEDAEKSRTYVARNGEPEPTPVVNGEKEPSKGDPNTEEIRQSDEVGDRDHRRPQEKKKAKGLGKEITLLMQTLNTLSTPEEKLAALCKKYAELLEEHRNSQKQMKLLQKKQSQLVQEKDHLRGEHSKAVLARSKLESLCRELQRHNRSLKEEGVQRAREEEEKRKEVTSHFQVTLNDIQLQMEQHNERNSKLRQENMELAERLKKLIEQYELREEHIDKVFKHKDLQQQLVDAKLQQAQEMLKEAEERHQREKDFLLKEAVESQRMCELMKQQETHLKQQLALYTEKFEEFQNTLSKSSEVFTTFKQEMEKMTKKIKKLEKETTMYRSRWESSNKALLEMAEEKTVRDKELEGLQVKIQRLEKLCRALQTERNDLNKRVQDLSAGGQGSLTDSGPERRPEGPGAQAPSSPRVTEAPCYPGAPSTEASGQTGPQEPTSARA
UniProt A6NIH7: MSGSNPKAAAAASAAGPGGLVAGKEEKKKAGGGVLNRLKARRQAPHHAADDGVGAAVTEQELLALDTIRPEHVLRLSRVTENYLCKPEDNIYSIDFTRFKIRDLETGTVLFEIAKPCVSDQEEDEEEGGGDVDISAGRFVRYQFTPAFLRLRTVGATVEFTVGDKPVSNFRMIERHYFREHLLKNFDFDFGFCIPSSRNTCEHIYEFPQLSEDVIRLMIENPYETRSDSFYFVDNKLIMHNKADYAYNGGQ
UniProt Q12792, whole entry: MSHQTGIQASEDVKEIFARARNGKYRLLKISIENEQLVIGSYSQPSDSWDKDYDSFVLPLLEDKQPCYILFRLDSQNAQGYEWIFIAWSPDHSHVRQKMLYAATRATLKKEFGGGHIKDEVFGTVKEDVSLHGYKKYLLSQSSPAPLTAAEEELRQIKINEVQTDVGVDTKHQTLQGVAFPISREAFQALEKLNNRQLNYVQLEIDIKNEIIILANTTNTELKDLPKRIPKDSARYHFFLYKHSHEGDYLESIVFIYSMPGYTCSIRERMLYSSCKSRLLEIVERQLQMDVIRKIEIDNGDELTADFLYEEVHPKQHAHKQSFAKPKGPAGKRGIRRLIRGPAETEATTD
UniProt P31930: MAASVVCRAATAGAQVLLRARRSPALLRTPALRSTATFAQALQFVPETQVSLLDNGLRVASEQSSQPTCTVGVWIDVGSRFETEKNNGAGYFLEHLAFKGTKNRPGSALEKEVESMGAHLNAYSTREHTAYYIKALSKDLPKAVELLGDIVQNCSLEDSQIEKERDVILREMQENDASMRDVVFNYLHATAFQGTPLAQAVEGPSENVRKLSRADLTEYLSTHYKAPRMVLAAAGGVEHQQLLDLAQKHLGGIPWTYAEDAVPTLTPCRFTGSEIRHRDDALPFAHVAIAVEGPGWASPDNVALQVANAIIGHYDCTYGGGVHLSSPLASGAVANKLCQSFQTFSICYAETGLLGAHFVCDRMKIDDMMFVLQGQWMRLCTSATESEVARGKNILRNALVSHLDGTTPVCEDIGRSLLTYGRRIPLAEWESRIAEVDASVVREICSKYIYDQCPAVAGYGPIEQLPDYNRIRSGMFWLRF
UniProt Q8NB14: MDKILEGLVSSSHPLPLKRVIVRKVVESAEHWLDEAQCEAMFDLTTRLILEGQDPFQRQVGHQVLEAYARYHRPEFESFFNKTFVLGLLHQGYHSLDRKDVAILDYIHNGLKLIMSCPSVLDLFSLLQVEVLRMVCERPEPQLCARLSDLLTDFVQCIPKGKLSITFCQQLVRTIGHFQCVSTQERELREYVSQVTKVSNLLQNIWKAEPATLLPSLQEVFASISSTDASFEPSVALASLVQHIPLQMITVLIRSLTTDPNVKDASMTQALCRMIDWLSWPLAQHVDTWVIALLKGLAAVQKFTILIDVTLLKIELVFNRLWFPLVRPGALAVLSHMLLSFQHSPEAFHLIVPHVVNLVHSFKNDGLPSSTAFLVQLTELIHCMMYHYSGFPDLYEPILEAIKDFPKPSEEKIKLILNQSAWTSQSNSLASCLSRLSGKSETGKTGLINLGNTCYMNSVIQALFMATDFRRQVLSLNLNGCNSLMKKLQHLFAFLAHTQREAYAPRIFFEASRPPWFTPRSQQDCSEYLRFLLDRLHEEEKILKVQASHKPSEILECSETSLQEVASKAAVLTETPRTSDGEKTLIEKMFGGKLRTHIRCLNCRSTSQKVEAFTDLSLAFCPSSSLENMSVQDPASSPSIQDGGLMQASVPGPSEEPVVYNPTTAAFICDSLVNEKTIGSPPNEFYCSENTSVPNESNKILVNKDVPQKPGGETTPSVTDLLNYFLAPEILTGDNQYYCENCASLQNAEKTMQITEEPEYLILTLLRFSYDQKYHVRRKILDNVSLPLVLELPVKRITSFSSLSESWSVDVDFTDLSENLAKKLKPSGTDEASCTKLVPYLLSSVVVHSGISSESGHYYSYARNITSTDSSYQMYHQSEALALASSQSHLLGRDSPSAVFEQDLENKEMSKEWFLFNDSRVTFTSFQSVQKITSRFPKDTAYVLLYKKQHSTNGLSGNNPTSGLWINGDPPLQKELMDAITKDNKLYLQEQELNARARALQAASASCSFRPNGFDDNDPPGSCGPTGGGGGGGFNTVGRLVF

Compound: COc1ccc(Cn2ccc3ccc(C(=O)NO)cc32)cc1
Assay: dose-dependent thermal stabilisation call (2D-TPP, DLPTP, 10% FDR) (binary (1 = stabilised)); higher = stabilised by the compound
Conditions: system: HL-60 intact cells; concentration range 0.04-10 µM

Target	dose-dependent thermal stabilisation call
UBE3C (UniProt Q15386)	inactive: 0
UBFD1 (UniProt O14562)	inactive: 0
UBQLN2 (UniProt Q9UHD9)	inactive: 0
TXNDC11 (UniProt Q6PKC3)	inactive: 0
UBE2V2 (UniProt Q15819)	inactive: 0
TRIM65 (UniProt Q6PJ69)	inactive: 0
UHRF1BP1 (UniProt Q6BDS2)	inactive: 0
TSNAX (UniProt Q99598)	inactive: 0
TXN (UniProt P10599)	inactive: 0
TRUB2 (UniProt O95900)	inactive: 0
TRIM28 (UniProt Q13263)	inactive: 0
TRAPPC4 (UniProt Q9Y296)	inactive: 0
TXNDC16 (UniProt Q9P2K2)	inactive: 0
UBAP2L (UniProt Q14157)	inactive: 0
TREX1 (UniProt Q9NSU2)	inactive: 0
TXNDC14 (UniProt Q9Y320)	inactive: 0
TPRKB (UniProt Q9Y3C4)	inactive: 0
UBA3 (UniProt Q8TBC4)	inactive: 0
UBE2R2 (UniProt Q712K3)	inactive: 0

Target	dose-dependent thermal stabilisation call
TROVE2 (UniProt P10155)	inactive: 0
TTC13 (UniProt Q8NBP0)	inactive: 0
TUBGCP4 (UniProt Q9UGJ1)	inactive: 0
TWF2 (UniProt Q6IBS0)	inactive: 0
TRIM38 (UniProt O00635)	inactive: 0
TXLNA (UniProt P40222)	inactive: 0
UNC119 (UniProt Q13432)	inactive: 0
UNC119B (UniProt A6NIH7)	inactive: 0
TUSC4 (UniProt Q8WTW4)	inactive: 0
UBE2T (UniProt Q9NPD8)	inactive: 0
TUBB2C (UniProt P68371)	inactive: 0
TWF1 (UniProt Q12792)	inactive: 0
UBE2M (UniProt P61081)	inactive: 0
TXNIP (UniProt Q9H3M7)	inactive: 0
UQCRC1 (UniProt P31930)	inactive: 0
TUBGCP3 (UniProt Q96CW5)	inactive: 0
UBE2O (UniProt Q9C0C9)	inactive: 0
URG4 (UniProt Q8TCY9)	inactive: 0
USP38 (UniProt Q8NB14)	inactive: 0

7 entries from above, in markdown:

| Target | dose-dependent thermal stabilisation call |
| --- | --- |
| TRUB2 (UniProt O95900) | inactive: 0 |
| TXNDC16 (UniProt Q9P2K2) | inactive: 0 |
| UBE2R2 (UniProt Q712K3) | inactive: 0 |
| TROVE2 (UniProt P10155) | inactive: 0 |
| TUBGCP4 (UniProt Q9UGJ1) | inactive: 0 |
| UBE2M (UniProt P61081) | inactive: 0 |
| URG4 (UniProt Q8TCY9) | inactive: 0 |
